No constants are given. Whether binding was seen depends on the method and setting. Binding seen in cells or lysates may run through a third protein. Here binding means that the protein was enriched with, or labelled near, the bait; the list need not be complete.
Molecular target: KAT6A (human (endogenous in PDLSCs)) (UniProt Q92794)
Assay: affinity purification with mass spectrometry; KAT6A-associated proteins collected from PDLSC lysate as in the Co-IP assay (anti-KAT6A, protein A-Sepharose), SDS-PAGE with silver staining, LC-MS/MS; IgG group as negative reference

Protein sequences, listed by entry. Tags and fused reporters are not part of them.
UniProt Q92794: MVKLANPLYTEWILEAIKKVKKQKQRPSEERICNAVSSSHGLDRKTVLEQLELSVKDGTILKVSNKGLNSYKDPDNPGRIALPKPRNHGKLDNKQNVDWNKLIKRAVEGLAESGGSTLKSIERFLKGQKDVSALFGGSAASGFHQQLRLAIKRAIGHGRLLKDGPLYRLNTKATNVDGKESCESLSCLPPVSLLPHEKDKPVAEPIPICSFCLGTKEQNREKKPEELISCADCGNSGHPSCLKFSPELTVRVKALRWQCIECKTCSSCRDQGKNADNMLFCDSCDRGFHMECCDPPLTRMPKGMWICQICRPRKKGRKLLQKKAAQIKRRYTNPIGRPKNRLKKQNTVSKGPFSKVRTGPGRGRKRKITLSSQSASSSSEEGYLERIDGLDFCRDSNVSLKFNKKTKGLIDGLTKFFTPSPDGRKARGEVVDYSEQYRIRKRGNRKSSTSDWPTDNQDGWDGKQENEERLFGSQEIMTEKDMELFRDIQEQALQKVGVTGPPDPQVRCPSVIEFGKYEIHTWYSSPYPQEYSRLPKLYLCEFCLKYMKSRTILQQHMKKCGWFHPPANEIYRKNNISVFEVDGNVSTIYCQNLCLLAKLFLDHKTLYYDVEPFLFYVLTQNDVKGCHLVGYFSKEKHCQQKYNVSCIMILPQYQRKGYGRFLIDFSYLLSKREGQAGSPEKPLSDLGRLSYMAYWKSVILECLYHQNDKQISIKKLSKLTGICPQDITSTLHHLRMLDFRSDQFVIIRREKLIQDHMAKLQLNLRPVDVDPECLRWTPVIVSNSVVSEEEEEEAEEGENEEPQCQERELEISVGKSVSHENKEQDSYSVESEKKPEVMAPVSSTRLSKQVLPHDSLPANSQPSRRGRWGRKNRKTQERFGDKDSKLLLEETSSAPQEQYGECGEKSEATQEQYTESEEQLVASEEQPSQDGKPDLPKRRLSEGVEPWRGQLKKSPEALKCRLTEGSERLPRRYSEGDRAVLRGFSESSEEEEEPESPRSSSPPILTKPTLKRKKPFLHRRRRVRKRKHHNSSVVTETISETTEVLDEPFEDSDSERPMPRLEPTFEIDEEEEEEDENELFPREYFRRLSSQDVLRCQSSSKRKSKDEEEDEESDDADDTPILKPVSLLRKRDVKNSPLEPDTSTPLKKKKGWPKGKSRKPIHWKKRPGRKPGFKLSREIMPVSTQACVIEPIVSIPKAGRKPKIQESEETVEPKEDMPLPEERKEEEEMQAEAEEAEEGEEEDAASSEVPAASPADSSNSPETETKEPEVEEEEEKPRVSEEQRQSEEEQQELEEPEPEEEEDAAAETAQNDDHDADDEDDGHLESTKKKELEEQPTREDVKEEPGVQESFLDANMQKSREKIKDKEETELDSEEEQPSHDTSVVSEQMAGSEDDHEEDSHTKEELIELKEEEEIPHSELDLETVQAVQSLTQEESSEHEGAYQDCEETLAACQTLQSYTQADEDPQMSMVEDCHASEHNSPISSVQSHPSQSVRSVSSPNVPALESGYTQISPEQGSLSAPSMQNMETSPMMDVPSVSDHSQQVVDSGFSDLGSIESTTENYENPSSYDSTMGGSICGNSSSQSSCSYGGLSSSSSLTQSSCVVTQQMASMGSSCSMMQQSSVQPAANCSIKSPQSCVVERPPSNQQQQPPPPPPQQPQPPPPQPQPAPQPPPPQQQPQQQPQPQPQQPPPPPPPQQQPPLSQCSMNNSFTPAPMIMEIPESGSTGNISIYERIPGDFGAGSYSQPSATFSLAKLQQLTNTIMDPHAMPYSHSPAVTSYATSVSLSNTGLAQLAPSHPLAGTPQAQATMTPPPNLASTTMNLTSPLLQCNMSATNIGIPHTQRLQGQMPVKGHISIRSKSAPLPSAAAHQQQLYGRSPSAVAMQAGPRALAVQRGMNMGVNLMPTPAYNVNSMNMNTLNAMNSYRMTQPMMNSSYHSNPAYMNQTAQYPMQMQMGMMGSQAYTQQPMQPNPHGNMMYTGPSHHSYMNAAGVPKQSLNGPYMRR
UniProt P46937: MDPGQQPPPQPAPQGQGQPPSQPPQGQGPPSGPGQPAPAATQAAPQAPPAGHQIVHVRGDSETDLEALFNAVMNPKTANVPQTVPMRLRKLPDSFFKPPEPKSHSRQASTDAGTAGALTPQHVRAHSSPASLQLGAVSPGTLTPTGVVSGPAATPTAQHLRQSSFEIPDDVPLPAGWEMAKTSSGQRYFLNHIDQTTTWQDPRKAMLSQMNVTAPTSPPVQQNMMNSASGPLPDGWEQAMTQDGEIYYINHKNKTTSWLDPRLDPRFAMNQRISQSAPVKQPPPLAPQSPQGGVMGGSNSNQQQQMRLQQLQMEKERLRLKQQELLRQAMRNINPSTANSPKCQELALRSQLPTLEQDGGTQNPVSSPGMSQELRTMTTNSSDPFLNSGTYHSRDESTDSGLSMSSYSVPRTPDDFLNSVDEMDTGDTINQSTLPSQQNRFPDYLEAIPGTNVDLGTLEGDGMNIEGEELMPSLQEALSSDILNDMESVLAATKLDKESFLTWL

Question: For YAP (from UniProt P46937 1-504), which binding is on record?
Answer: The binding was “binds”.

From paper PMC11317454
